Data source: PubChem BioAssay AID1259276 (Sanger Institute, 2017)

Test: 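Kinome-wide search for kinases colon cancer cells need, and for drug partners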 (primary screen)
Cell system: human C2BBe1 colorectal cancer cells
Reagent: siRNA pool against human genes
Challenge: DMSO vehicle, or one anchor drug: BYL719 at 1 µM, cetuximab at 5 µg/ml, or trametinib at 10 nM; exposure length not stated
Measurement: 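Cell viability as a fraction of non-targeting control wells, mean of replicates, also as a control-based robust z-score, plus a synergy score for each anchor drug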
Direction: viability robust z-score, siRNA alone: higher = more viable cells after knock-down
Rule for the call: 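Called essential when knock-down alone gives a viability robust z-score below -3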
Meaning of the calls: active = essential (siRNA alone); inactive = no change (siRNA alone)
In all, the deposit lists 794 reagents; this is a random part of them. 24 of them (3%) count as active. 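Calls come only from the siRNA-alone arm; drug synergy scores do not affect them.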 Not all columns of the deposit are shown. Not given: the amount of reagent, the time to read-out.

| gene knocked down | viability robust z-score, siRNA alone | Outcome |
| --- | --- | --- |
| EIF2AK3 | 0.472 | inactive |
| RSKR | 0.472 | inactive |
| PRKY | 0.17 | inactive |
| PI4KA | 0.472 | inactive |
| PAK2 | 0.472 | inactive |
| IKBKG | -3.32 | active |
| MED24 | 0.472 | inactive |
| CAMK2G | 0.472 | inactive |
| FOXP1 | -0.541 | inactive |
| TYK2 | -1.78 | inactive |
| HIPK4 | 0.472 | inactive |
| PHKB | 0.472 | inactive |

Entries above whose target name begins with P or p:
| gene knocked down | viability robust z-score, siRNA alone | Outcome |
| --- | --- | --- |
| PRKY | 0.17 | inactive |
| PI4KA | 0.472 | inactive |
| PAK2 | 0.472 | inactive |
| PHKB | 0.472 | inactive |

Next entries:
| gene knocked down | viability robust z-score, siRNA alone | Outcome |
| --- | --- | --- |
| STK26 | 0.472 | inactive |
| BUB1 | -0.79 | inactive |
| CALM1 | 0.472 | inactive |
| PTK7 | -4.23 | active |
| ALPK2 | 0.472 | inactive |
| GATA3 | 0.472 | inactive |
| MAP3K15 | 0.472 | inactive |
| NUP62 | 0.472 | inactive |
